Data from patent publication US11110067B2 (THE BOARD OF REGENTS OF THE UNIVERSITY OF TEXAS SYSTEM, priority 2008, dated 2021).
At least one structure is not confirmed: it was looked up by name or label, or the drawing left a doubt.

System: genetically heterogeneous mice
Test: Survival of mice fed encapsulated rapamycin from 270 days of age (Cohort 2006)
Assay type: in vivo, mouse
Conditions: pooled across three sites, interim analysis

With `CO[C@H]1C[C@@H]2CC[C@@H](C)[C@@](O)(O2)C(=O)C(=O)N2CCCC[C@H]2C(=O)O[C@H]([C@H](C)C[C@@H]2CC[C@@H](O)[C@H](OC)C2)CC(=O)[C@H](C)/C=C(\C)[C@@H](O)[C@@H](OC)C(=O)[C@H](C)C[C@H](C)/C=C/C=C/C=C/1C` [rapamycin, (3S,6R,7E,9R,10R,12R,14S,15E,17E,19E,21S,23S,26R,27R,34aS)-9,10,12,13,14,21,22,23,24,25,26,27,32,33,34,34a-hexadecahydro-9,27-dihydroxy-3-[(1R)-2-[(1S,3R,4R)-4-hydroxy-3-methoxycyclohexyl]-1-methylethyl]-10,21-dimethoxy-6,8,12,14,20,26-hexamethyl-23,27-epoxy-3H-pyrido[2,1-c][1,4]oxaazacyclohentria-contine-1,5,11,28,29 (4H,6H,31H)-pentone] the “Mortality risk compared to controls (stratified log-rank test)” value was “significantly lower mortality risk”.
